# Test results taken from US8574551B2, “Compositions useful for reducing nephrotoxicity and methods of use thereof” (Verrow Pharmaceuticals, Inc., priority 2005, dated 2013).
# Test: MTX-captisol solubility: rate of precipitation of MTX at pH 5.0 in presence and absence of captisol
# Type: physicochemical
# Conditions: pH 5.0, MTX added 0.91 mg/ml
# Description: Solubility studies were performed to determine whether Captisol could prevent the precipitation of MTX over a time period greater than transit time of MTX through the kidney (i.e., less than 2 minutes). Each solution was acidified with HCl, centrifuged and aliquots of the supernatant removed as a function of time, and the concentration of MTX in solution was measured spectrophometrically.
compound,measurement,setting,value
"CN(Cc1cnc2nc(N)nc(N)c2n1)c1ccc(C(=O)N[C@@H](CCC(=O)O)C(=O)O)cc1 [MTX, N-[4-[[(2,4-diamino-6pteridinyl)methyl]methylamino]benzoyl]-L-glutamicacid]",OD at 302-304 nm,5 min after adding acid,0.296
same,OD at 302-304 nm,10 min after adding acid,0.22
same,OD at 302-304 nm,15 min after adding acid,0.274
same,OD at 302-304 nm,20 min after adding acid,0.328
same,OD at 302-304 nm,30 min after adding acid,0.325
same,OD at 302-304 nm,40 min after adding acid,0.284
same,OD at 302-304 nm,50 min after adding acid,0.293
same,OD at 302-304 nm,60 min after adding acid,0.333
